# Primary screen of a compound library

Chains of the proteins cited; added tags and fusions are not shown. Residues count along the entry.
UniProt Q4DA54, 1-478: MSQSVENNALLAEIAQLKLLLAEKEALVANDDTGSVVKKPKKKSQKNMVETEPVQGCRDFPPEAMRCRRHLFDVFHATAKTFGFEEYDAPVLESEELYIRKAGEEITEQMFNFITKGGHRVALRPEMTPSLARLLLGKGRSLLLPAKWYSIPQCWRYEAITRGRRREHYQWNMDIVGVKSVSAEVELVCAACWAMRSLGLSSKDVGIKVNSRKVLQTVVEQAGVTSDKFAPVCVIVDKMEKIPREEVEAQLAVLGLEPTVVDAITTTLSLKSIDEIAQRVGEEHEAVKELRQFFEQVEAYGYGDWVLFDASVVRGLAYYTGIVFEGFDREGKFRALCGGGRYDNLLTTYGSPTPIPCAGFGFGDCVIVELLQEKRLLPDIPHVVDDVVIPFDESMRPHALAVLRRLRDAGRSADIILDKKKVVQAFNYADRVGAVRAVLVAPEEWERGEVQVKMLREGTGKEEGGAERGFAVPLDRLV
UniProt P9WNZ1, whole entry: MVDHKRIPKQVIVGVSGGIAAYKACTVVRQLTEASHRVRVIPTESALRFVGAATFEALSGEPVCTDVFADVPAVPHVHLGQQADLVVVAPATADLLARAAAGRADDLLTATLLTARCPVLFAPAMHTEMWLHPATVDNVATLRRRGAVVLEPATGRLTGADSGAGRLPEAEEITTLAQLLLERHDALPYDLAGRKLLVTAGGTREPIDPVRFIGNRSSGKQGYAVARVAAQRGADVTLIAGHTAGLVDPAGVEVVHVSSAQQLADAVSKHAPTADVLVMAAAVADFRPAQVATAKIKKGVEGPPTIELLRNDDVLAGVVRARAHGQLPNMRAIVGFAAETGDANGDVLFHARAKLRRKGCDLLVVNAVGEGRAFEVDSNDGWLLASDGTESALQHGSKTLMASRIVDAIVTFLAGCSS

From ChEMBL document CHEMBL3988442, “University of Dundee, Small-Polar-MMV Screening Library” (2021).

Each number is a percent effect as filed.
How 0% and 100% were set is not recorded. Most values in the screen are low, and negative values occur.
Compounds were drawn at random from those tested, without regard to their results.

A: 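Histidine-tRNA ligase, Trypanosoma cruzi CL Brener (UniProt Q4DA54). Enzyme assay of histidyl-tRNA synthetase; the read-out is not stated. Concentration: 30 µM. Direction is inferred from retests: higher values go with stronger inhibition. Of about 69,000 compounds tested this way, about 31 (0.045%) reached 50% or more in at least one test.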
B: 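Coenzyme A biosynthesis protein CoaBC, Mycobacterium tuberculosis (UniProt P9WNZ1). Enzyme assay of CoaBC with a phosphate dye (Biomol Green) read at 650 nm. Compounds at 30 µM. Higher reads as stronger inhibition, judged from the few compounds that gave an IC50. Most strong results did not repeat in a second test. Of about 67,000 compounds tested this way, about 40 (0.06%) reached 50% or more in at least one test.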

{"compound": "CN(C)c1ncccc1CNS(=O)(=O)c1ccc(F)cc1F", "A": -0.5714, "B": 0.2389}
{"compound": "CCNc1ncc(CN2CCOC(Cc3cccc(OC)c3)C2)cn1", "stereo": "stereo unspecified", "A": 2.679, "B": 1.635}
{"compound": "COc1cc(Cc2nc3c([nH]2)CC(C)(C)CNC3=O)cc(OC)c1", "A": 0.5525, "B": 11.17}
{"compound": "CNC(=O)[C@H]1C[C@@H]2CN(C(=O)c3ccncc3)C[C@@H]2N1S(C)(=O)=O", "A": 11.43, "B": 2.589}
{"compound": "CCc1ccc(CN2CCC(CNS(=O)(=O)C3CC3)C2)nc1", "stereo": "stereo unspecified", "A": 7.853, "B": -1.029}
{"compound": "CN(Cc1ccc(-n2cccn2)cc1)c1nc(N)nc2c1CCNCC2", "A": 2.439, "B": -0.1255}
{"compound": "O=C(O)c1c(-c2ccoc2)ncc2c1CCN(C1CCOC1)C2", "stereo": "stereo unspecified", "A": 3.797}
{"compound": "CCc1c(C)sc2c1c(N)nc(=O)n2CCN(C)C", "A": 4.663, "B": 1.562}
{"compound": "CCN(CCO)C[C@@H]1CN(c2nc(C)cc(C)n2)C[C@@H]1CO", "A": 4.878, "B": -3.924}
{"compound": "CN(C)[C@@H]1CO[C@H](CNC(=O)Nc2ccccc2)[C@H]1O", "A": 4.348, "B": 5.96}
{"compound": "COc1cc(N2CCC3(CCN(Cc4cccnc4)C3=O)C2)ncn1", "stereo": "stereo unspecified", "A": 5.525, "B": 0}
{"compound": "COc1cccc(CNC(C)c2ccc(-n3ccnc3)cc2)c1OC", "stereo": "stereo unspecified", "A": 2.89, "B": -2.73}
{"compound": "Cc1cccc2c1ccn2CC(=O)NC[C@@H]1CCCN2CCCC[C@H]12", "A": 7.921, "B": -1.09}
{"compound": "Cc1cc(NS(=O)(=O)c2cccs2)ccc1-n1cccc1C(=O)O", "A": 1.667, "B": 0.4132}
{"compound": "CCc1nccn1CCC(=O)N1CCOC(c2ccc(F)cc2)C1", "stereo": "stereo unspecified", "A": 5.682, "B": -1.071}
{"compound": "Cc1cccc(CN2C[C@@H]3CN(C(=O)NC(C)C)C[C@@H]3C2=O)c1", "A": 3.347, "B": 9.091}
{"compound": "CC(=O)N(C)Cc1ccccc1NCc1c(C)noc1C", "A": 1.087, "B": 5.444}
{"compound": "Cc1cc(NC(=O)CCCn2ccnc2C)nc(C(C)C)n1", "A": 3.261, "B": -10.69}
{"compound": "Cc1nc(C(=O)N2CCN(C(C)c3ccccc3F)CC2)cs1", "stereo": "stereo unspecified", "A": 1.734, "B": 4.132}
{"compound": "CC(C)(C)NC(=O)CN1CCCC(c2ccc(C(=O)O)cc2)C1", "stereo": "stereo unspecified", "A": -2.242, "B": 1.523}
{"compound": "COc1ccc(C(=O)N2C[C@@H](C(=O)O)[C@H](c3ccccc3C)C2)c(O)c1", "A": 1.695, "B": -8.37}
{"compound": "COc1ccc(CNC(=O)CCCc2nnc3ccc(OC)nn23)cc1", "A": -1.98, "B": 5.448}
{"compound": "Cc1cc(C2CCCN(S(=O)(=O)c3cn(C)cn3)C2)ccn1", "stereo": "stereo unspecified", "A": 6.202, "B": 4.785}
{"compound": "COCCN(Cc1nc2c(cnn2C)c(=O)[nH]1)C(C)c1ccccc1", "stereo": "stereo unspecified", "A": 2.579, "B": 5.59}
{"compound": "CN(Cc1cccc(C#N)c1)Cn1nc(C(C)(C)C)ccc1=O", "A": 8.333, "B": 4.28}
{"compound": "FC1(F)CCNCC12CCN(c1ccccn1)C2", "stereo": "stereo unspecified", "A": 5.882, "B": -4.583}
{"compound": "Cn1cc(N2CC3(CCN(Cc4nccs4)CC3)OCC2=O)cn1", "A": 1.22, "B": 7.519}
{"compound": "Cc1cnn(CC2CCCN2C(=O)Cc2cccs2)c1", "stereo": "stereo unspecified", "A": 5.634, "B": 7.252}
{"compound": "COC(=O)CSc1nnc2[nH]c(=O)c3c(n12)CCCC3", "A": 1.031, "B": 11.63}
{"compound": "CCn1cc(-c2cc(C(F)(F)F)nn2CCC#N)cn1", "A": 1.339, "B": 5.612}
{"compound": "CC(C)C(=O)NCc1cccc(N2CCCCC2=O)c1", "A": -0.3774, "B": 3.077}
{"compound": "CCn1cc(CN2CCC(NS(C)(=O)=O)CC2)cc1C#N", "A": 6.329, "B": 0.4808}
{"compound": "COCc1ccc(C(=O)NCCCNc2ccc(C(F)(F)F)cn2)cc1", "A": 4.118, "B": 8.184}
{"compound": "NC(=O)c1cc(C2CCCN(C(=O)CCc3ccncc3)C2)n[nH]1", "stereo": "stereo unspecified", "A": 1.143, "B": 0.7168}
{"compound": "CCc1ncnc2c1CCN(Cc1ccc3c(c1)OCO3)CC2", "A": 14.07, "B": 7.593}
{"compound": "Cc1oncc1C(=O)N1CCC2(CC1)CC(c1ccccc1)C(=O)N2C", "stereo": "stereo unspecified", "A": -32.97, "B": -4.442}
{"compound": "CCc1nnc(N2CCN(CCc3ccccc3)C(=O)C2)o1", "A": 3.409, "B": -4.069}

The first 5 entries again:

| Compound | A | B |
|---|---|---|
| `CN(C)c1ncccc1CNS(=O)(=O)c1ccc(F)cc1F` | -0.5714% | 0.2389% |
| `CCNc1ncc(CN2CCOC(Cc3cccc(OC)c3)C2)cn1` (stereo unspecified) | 2.679% | 1.635% |
| `COc1cc(Cc2nc3c([nH]2)CC(C)(C)CNC3=O)cc(OC)c1` | 0.5525% | 11.17% |
| `CNC(=O)[C@H]1C[C@@H]2CN(C(=O)c3ccncc3)C[C@@H]2N1S(C)(=O)=O` | 11.43% | 2.589% |
| `CCc1ccc(CN2CCC(CNS(=O)(=O)C3CC3)C2)nc1` (stereo unspecified) | 7.853% | -1.029% |